Test results from paper PMC10844685.
These are yes or no findings as the source states them, for the method shown. Binding seen in cells or lysates may run through a third protein. Some entries that bind do so weakly or less than the wild type.

Chains of the proteins cited; added tags and fusions are not shown.
UniProt Q9C026: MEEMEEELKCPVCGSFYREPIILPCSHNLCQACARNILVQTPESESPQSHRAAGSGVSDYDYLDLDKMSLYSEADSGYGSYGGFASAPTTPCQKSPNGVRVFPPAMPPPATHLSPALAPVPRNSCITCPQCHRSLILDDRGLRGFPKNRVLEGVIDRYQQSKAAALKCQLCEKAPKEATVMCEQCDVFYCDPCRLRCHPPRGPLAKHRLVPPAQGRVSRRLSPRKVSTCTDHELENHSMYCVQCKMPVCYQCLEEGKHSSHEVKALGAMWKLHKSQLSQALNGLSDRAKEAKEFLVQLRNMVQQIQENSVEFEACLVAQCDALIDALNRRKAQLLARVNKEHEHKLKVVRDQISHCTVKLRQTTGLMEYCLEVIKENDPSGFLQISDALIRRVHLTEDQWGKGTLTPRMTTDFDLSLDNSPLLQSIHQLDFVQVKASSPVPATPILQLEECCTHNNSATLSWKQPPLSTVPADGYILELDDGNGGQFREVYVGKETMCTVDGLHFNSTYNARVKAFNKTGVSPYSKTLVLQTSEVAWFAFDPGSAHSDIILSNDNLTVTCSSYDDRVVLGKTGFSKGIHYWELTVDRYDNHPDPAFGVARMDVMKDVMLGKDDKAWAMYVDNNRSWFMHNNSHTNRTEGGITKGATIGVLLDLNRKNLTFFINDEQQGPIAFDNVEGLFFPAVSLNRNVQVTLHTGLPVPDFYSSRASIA
UniProt P14618: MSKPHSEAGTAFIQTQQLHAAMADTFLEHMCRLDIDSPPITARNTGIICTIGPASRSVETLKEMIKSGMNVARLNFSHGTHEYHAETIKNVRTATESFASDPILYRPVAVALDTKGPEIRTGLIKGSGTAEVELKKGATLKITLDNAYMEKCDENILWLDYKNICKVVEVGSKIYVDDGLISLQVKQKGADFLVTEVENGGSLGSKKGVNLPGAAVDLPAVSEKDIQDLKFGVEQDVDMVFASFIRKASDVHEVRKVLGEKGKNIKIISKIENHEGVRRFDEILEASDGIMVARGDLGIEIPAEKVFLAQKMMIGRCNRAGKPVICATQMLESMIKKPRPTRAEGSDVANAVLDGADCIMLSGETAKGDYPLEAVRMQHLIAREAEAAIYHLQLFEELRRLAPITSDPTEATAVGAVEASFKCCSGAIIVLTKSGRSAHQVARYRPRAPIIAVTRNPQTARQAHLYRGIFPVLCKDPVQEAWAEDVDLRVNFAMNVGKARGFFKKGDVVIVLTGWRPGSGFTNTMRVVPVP

Molecular target: tripartite motif containing 9 (TRIM9) (human (endogenous in MDA-MB-231 and Hs578T)) (UniProt Q9C026)
Assay: co-IP; reciprocal co-IP of endogenous proteins from MDA-MB-231 and Hs578T lysates (RIPA buffer with protease inhibitor); 3 ug antibody overnight at 4 C; protein A/G PLUS-agarose; western blot

binding: binds
Substance: pyruvate kinase isoform M2 (PKM2) (from UniProt P14618 1-531) (enzyme)
